# These are yes or no findings as the source states them, for the method shown. Some binding calls cover weakened binding; strength is not graded here.
# Protein sequences, listed by entry. Tags and fused reporters are not part of them. Residues count along the entry.
# UniProt O14763, residues 54-182: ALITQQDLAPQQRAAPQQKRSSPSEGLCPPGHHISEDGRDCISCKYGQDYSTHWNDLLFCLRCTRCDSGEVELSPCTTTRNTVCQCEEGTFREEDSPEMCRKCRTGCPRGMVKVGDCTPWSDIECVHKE
# Legend:
# [1] = biological target: TRAIL-R2/Fc fusion protein (R & D Systems) (human) (UniProt O14763); experiment: TRAIL-R2 phage ELISA
# [2] = biological target: TRAIL-R2/Fc fusion protein (R & D Systems) (human) (UniProt O14763); experiment: competition phage ELISA, TRAIL-R2 coated plate, phage displayed Tn3 with or without soluble 7G11 or 5E5
# [3] = biological target: TRAIL-R2/Fc fusion protein (R & D Systems) (human) (UniProt O14763); experiment: competition phage ELISA on TRAIL-R2 coated plates
# [4] = biological target: TRAIL-R2/Fc fusion protein (R & D Systems) (human) (UniProt O14763); experiment: competition phage ELISA, TRAIL-R2 coated plate, phage displayed Tn3 with soluble Tn3 competitors, signal relative to no Tn3
# [5] = biological target: TRAIL-R2/Fc fusion protein (R & D Systems) (human) (UniProt O14763); experiment: competition phage ELISA, TRAIL-R2 coated plate, phage displayed Tn3 with soluble Tn3 competitors, signal relative to no Tn3 [D00044 Fig. 15B; D00045 Fig. 15C]
# [6] = biological target: TRAIL-R2/Fc fusion protein (R & D Systems) (human) (UniProt O14763); experiment: biosensor, TRAIL-R2-Fc fusion protein immobilized on the chip
# [7] = biological target: TRAIL-R2/Fc fusion protein (R & D Systems) (human) (UniProt O14763); experiment: Attana biosensor, TRAIL-R2 chip, qualitative
# [8] = biological target: TRAIL-R2/Fc fusion protein (R & D Systems) (human) (UniProt O14763); experiment: Attana biosensor, TRAIL-R2-Fc immobilized, sample injected
# [9] = biological target: TRAIL-R2/Fc fusion protein (R & D Systems) (human) (UniProt O14763); experiment: BIAcore, TRAIL-R2/Fc captured on anti-human-Fc IgG, 5E5 injected
Binder,binding [1],binding [2],binding [3],binding [4],other results
1C10 (designed binder) IEVKDVTDTTALITWSPCCPYDRYTGCELTYGIKDVPGDRTTIDLQSSRSHYSIGNLKPDTEYEVSLICITTFGHVSNPAKETFTT,binds,,,binds,
1H05 (designed binder) IEVKDVTDTTALITWSPGMFDQVRTGCELTYGIKDVPGDRTTIDLGKYWERYSIGNLKPDTEYEVSLICRNQYGQHQSKETFTT,binds,,,,
1E03 (designed binder) IEVKDVTDTTALITWAAPFFGSSYISGCELTYGIKDVPGDRTTIDLHYYVTRYSIGNLKPDTEYEVSLICVNLSGHMPSKETFTT,binds,,,,binding [5]: binds
1C12 (designed binder) IEVKDVTDTTALITWAKPEKWDGSIYGCELTYGIKDVPGDRTTIDLNSRHTAYSIGNLKPDTEYEVSLICFTPYGAKSNPAKETFTT,binds,,,,binding [6]: binds; binding [5]: binds; binding [7]: binds; binding [8]: binds
1A03 (designed binder) IEVKDVTDTTALITWAPPPFSNSCIIGCELTYGIKDVPGDRTTIDLRPGRASYSIGNLKPDTEYEVSLICSTGTGLPSNPAKETFTT,binds,,,binds,
1G11 (designed binder) IEVKDVTDTTALITWSWAQANPGGCELTYGIKDVPGDRTTIDLWHSITFYSIGNLKPDTEYEVSLICKTKVQSSNPAKETFTT,binds,,,,
1C06 (designed binder) IEVKDVTDTTALITWSPRMYTWIQTGCELTYGIKDVPGDRTTIDLTHLSGSYSIGNLKPDTEYEVSLICLKLTRTHISKETFTT,binds,,,binds,
1B12 (designed binder) IEVKDVTDTTALITWAKPRQGGSNISGCELTYGIKDVPGDRTTIDLYHKGLHYSIGNLKPDTEYEVSLICPKMTGYTYSKETFTT,binds,,,binds,
1B04 (designed binder) IEVKDVTDTTALITWSPSHGVESSTGCELTYGIKDVPGDRTTIDLHGLQRVYSIGNLKPDTEYEVSLICAKICGHLVSKETFTT,binds,,,binds,
1D8 (designed binder) IEVKDVTDTTALITWSPCQMLSSLTGCELTYGIKDVPGDRTTIDLNIERPKYSIGNLKPDTEYEVSLICFTMTGYRSNPAKETFTT,binds,,,binds,
2B04 (designed binder) IEVKDVTDTTALITWAPPMLTDSEINGCELTYGIKDVPGDRTTIDLTSSYWSYSIGNLKPDTEYEVSLICSTLRRNAISKETFTT,binds,,,,binding [5]: binds
1E05 (designed binder) IEVKDVTDTTALITWSPCSPCQLVTGCELTYGIKDVPGDRTTIDLSCTRAKYSIGNLKPDTEYEVSLICINKLGDTSNPAKETFTT,binds,,,binds,
2A11 (designed binder) IEVKDVTDTTALITWSPPFRAGHVTGCELTYGIKDVPGDRTTIDLVTARCQYSIGNLKPDTEYEVSLICTTGNGLRSNPAKETFTT,binds,,,,
2F4 (designed binder) IEVKDVTDTTALITWSPCIMVCLRTGCELTYGIKDVPGDRTTIDLTEDENQYSIGNLKPDTEYEVSLICRRGDMSGAPAKETFTT,binds,binds,binds,binds,
"1C12-Cκ/1C12-IGHG1 (designed binder, not shown: a dimerising Fc or GST) chain 1: IEVKDVTDTTALITWAKPEKWDGSIYGCELTYGIKDVPGDRTTIDLNSRHTAYSIGNLKPDTEYEVSLICFTPYGAKSNPAKETFTTGGGTPT chain 2: IEVKDVTDTTALITWAKPEKWDGSIYGCELTYGIKDVPGDRTTIDLNSRHTAYSIGNLKPDTEYEVSLICFTPYGAKSNPAKETFTTGGGTPT",,,,,binding [6]: binds; binding [7]: binds; binding [8]: binds
2F02 (designed binder) IEVKDVTDTTALITWSPSRGGTSLTGCELTYGIKDVPGDRTTIDLDQVRATYSIGNLKPDTEYEVSLICHTNSGQPSNPAKETFTT,binds,,,,
2A12 (designed binder) IEVKDVTDTTALITWSPCCQEFTLTGCELTYGIKDVPGDRTTIDLHNHHHHYSIGNLKPDTEYEVSLICITDAGNKSNPAKETFTT,binds,,,binds,
2D3 (designed binder) IEVKDVTDTTALITWSPGGFQKITTGCELTYGIKDVPGDRTTIDLVNRRNHYSIGNLKPDTEYEVSLICLTYKARAISKETFTT,binds,,,,binding [5]: binds

# Continued, in another order:
binding [1],binding [2],binding [3],binding [4],Binder,other results
binds,binds,binds,,7G11 (designed binder) IEVKDVTDTTALITWAKPSIVNGFISGCELTYGIKDVPGDRTTIDLTEDENQYSIGNLKPDTEYEVSLICDKCFGAMKSKETFTT,
binds,binds,binds,,8B3 (designed binder) IEVKDVTDTTALITWSPPEYAFYYTGCELTYGIKDVPGDRTTIDLTEDENQYSIGNLKPDTEYEVSLICVKNCGLFSNPAKETFTT,
binds,,,binds,2G03 (designed binder) IEVKDVTDTTALITWSPGPLLRHTTGCELTYGIKDVPGDRTTIDLRPIPRAYSIGNLKPDTEYEVSLICRNRPQQSNPAKETFTT,
binds,binds,binds,,2H6 (designed binder) IEVKDVTDTTALITWATPSVFDSHIEGCELTYGIKDVPGDRTTIDLTEDENQYSIGNLKPDTEYEVSLICWKHHGDAWSKETFTT,
binds,,,binds,3B11 (designed binder) IEVKDVTDTTALITWSPCQLLALITGCELTYGIKDVPGDRTTIDLNSRHYHYSIGNLKPDTEYEVSLICYTSTGQRSNPAKETFTT,
binds,binds,binds,binds,5E5 (designed binder) IEVKDVTDTTALITWSLAPGYRLGCELTYGIKDVPGDRTTIDLTEDENQYSIGNLKPDTEYEVSLICVKLCMRGNPAKETFTT,binding [9]: binds
binds,binds,binds,binds,10D9 (designed binder) IEVKDVTDTTALITWSPPLFCCQKTGCELTYGIKDVPGDRTTIDLTEDENQYSIGNLKPDTEYEVSLICFKLTGFLYSKETFTT,
binds,binds,binds,binds,5B10 (designed binder) IEVKDVTDTTALITWSPCLFVCLRTGCELTYGIKDVPGDRTTIDLTEDENQYSIGNLKPDTEYEVSLICRRGDMSGAPAKETFTT,
binds,binds,binds,binds,6F11 (designed binder) IEVKDVTDTTALITWSPSVARMLETGCELTYGIKDVPGDRTTIDLTEDENQYSIGNLKPDTEYEVSLICITLCGRGVSKETFTT,
binds,binds,binds,,6C7 (designed binder) IEVKDVTDTTALITWAKPMSCSGYIQGCELTYGIKDVPGDRTTIDLTEDENQYSIGNLKPDTEYEVSLICAKLTGWLCSKETFTT,
binds,,,,2F08 (designed binder) IEVKDVTDTTALITWSHAGGIRIGCELTYGIKDVPGDRTTIDLHVWQVYYSIGNLKPDTEYEVSLICMTPYLLGNPAKETFTT,
